No constants are given. Whether binding was seen depends on the method and setting. Binding can be weak; no strength is given. Sequences can lack the tags named with a protein. For some assays here: Binding seen in cells or lysates may run through a third protein.
T1: AtDRP2B–flag-4× c-myc (Arabidopsis thaliana) (UniProt Q9LQ55)
T1 sequence: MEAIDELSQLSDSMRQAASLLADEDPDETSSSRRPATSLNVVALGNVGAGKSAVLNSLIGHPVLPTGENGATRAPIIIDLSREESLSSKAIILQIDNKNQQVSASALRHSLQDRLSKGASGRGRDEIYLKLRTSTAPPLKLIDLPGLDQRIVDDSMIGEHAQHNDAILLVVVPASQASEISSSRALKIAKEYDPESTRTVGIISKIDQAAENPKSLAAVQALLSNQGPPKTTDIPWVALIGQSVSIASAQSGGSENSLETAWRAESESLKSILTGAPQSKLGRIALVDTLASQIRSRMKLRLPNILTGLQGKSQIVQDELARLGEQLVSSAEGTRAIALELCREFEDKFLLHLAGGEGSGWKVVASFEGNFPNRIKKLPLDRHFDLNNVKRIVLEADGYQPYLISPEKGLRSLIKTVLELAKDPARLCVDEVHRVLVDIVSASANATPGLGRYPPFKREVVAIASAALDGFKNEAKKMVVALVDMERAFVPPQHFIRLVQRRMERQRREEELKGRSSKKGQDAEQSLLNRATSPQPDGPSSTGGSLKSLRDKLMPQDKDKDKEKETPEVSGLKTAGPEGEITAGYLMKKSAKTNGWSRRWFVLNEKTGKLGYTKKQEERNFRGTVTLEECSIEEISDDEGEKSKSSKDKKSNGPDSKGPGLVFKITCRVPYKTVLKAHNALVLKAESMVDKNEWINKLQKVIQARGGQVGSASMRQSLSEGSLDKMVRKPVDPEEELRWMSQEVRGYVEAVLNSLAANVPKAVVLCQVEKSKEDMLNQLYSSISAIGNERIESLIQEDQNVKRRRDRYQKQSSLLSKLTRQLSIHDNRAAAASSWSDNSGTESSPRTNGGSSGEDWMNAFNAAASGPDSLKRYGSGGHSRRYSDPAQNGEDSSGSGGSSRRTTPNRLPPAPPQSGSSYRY

T2: AtDRP1A–flag-4× c-myc (Arabidopsis thaliana) (UniProt P42697)
T2 sequence: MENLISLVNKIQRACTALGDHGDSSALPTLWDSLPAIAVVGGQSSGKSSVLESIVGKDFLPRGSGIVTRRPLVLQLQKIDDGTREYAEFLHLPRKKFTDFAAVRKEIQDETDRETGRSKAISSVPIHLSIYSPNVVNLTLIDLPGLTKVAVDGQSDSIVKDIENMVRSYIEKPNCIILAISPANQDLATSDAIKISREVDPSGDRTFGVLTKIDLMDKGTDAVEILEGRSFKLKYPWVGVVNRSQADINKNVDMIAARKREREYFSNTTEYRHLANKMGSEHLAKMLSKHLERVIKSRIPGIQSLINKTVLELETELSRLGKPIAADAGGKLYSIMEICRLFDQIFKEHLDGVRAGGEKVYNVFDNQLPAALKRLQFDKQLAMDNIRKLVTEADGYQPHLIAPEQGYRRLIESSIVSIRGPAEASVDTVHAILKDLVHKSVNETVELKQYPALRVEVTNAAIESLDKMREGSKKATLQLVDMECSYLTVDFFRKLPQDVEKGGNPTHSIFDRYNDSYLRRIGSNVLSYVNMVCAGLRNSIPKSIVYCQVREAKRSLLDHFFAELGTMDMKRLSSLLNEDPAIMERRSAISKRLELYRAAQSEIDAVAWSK

B1: GmSDL5A fused to a split YFP half for BiFC (protein, UniProt Q39828 1-610)
chain: MENLISLVNKIQRACTALGDHGENSALPTLWDSLPAIAVVGGQSSGKSSVLESVVGKDFLPRGSGIVTRRPLVLQLHKIEEGSREYAEFLHLPRKRFTDFVAVRKEIQDETDRETGRTKQISTVPIHLSIYSPNVVNLTLVDLPGLTKVAVEGQPDSIVKDIEDMVRSYIEKPNCIILAISPANQDLATSDAIKISREVDPTGDRTIGVLTKIDLMDKGTDAVDILEGRAYRLKFPWIGVVNRSQQDINKNVDMIAARRREREYFNSTPEYKHLANRMGSEHLAKMLSKHLETVIKSKIPGIQSLINKTIAELEAELTRLGKPVAADAGGKLYAIMEICRSFDQIFKDHLDGVRPGGDKIYNVFDNQLPAALKRLQFDKQLSMENIRKLITEADGYQPHLIAPEQGYRRLIESSLITIRGPAEAAVDAVHSLLKDLVHKAISETLDLKQYPGLRVEVGAAAVDSLERMRDESKRATLQLVDMECGYLTVDFFRKLPQDVDKGGNPTHSIFDRYNDSYLRRIGTTILSYVNMVCATLRNSIPKSIVYCQVREAKRSLLDHFFTELGKMETKRLSSLLNEDPAIMERRSALAKRLELYRSAQAEIDAVAWSK
B2: AtDRP2A fused to a split YFP half for BiFC (protein, UniProt Q9SE83 1-914)
chain: MEAIDELSQLSDSMKQAASLLADEDPDETSSSKRPATFLNVVALGNVGAGKSAVLNSLIGHPVLPTGENGATRAPIIIELSRESSLSSKAIILQIDNKSQQVSASALRHSLQDRLSKGASGKNRDEINLKLRTSTAPPLKLVDLPGLDQRIVDESMIAEYAQHNDAILLVIVPASQASEISSSRALKIAKEYDPESTRTIGIIGKIDQAAENSKALAAVQALLSNQGPPKTTDIPWVAVIGQSVSIASAQSGSGENSLETAWRAESESLKSILTGAPQSKLGRIALVDTLASQIRSRMKLRLPSVLSGLQGKSQIVQDELARLGEQLVNSAEGTRAIALELCREFEDKFLLHLAGGEGSGWKVVASFEGNFPNRIKQLPLDRHFDLNNVKRVVLEADGYQPYLISPEKGLRSLIKIVLELAKDPARLCVDEVHRVLVDIVSASANATPGLGRYPPFKREVVAIASAALDGFKNEAKKMVVALVDMERAFVPPQHFIRLVQRRMERQRREEELKGRSSKKGQDAEQSLLSRATSPQPDGPTAGGSLKSMKDKPSPQDKETPEVSGLKTAGPEGEITAGYLMKKSAKTNGWSRRWFVLNEKTGKLGYTKKQEERNFRGTITLEECTIEEIPEDEVEKSKSSKDKKANGPDSKGPGLVFKITCKVPYKTVLKAHNALVLKAESVVDKNEWINKLQKVIQARGGQVGSVSMRQSLSEGSLDKMVRKPIDPEEELRWMSQEVRGYVEAVLNSLAANVPKAVVLCQVEKAKEDMLNQLYSSISAIGNERIESLIQEDQNVKRRRERYQKQSSLLSKLTRQLSIHDNRAAAASSYSDNSGTESSPRASGGSSGDDWMNAFNSAANGPSDSLSKYGSGGHSRRYSDPAQNGDAASPGSGSNRRTTPNRLPPAPPPTGSAYRY
B3: AtDRP2B-YN (protein, UniProt Q9LQ55 1-920)
chain: T1 sequence

Key:
[1] = target: T1, AtDRP2B–flag-4× c-myc (Arabidopsis thaliana); test: co-IP; TuMV-infected tissue of transgenic Arabidopsis homogenised, captured with anti-flag M2 gel, blotted with anti-TuMV CP polyclonal antibody
[2] = target: T2, AtDRP1A–flag-4× c-myc (Arabidopsis thaliana); test: immunocapture RT-PCR; TuMV-infected transgenic plants captured with anti-myc polyclonal or anti-flag monoclonal antibody; viral genomic RNA of the bound virions detected by RT-PCR
[3] = target: T1, AtDRP2B–flag-4× c-myc (Arabidopsis thaliana); test: as above
[4] = target: SMV CI fused to a split YFP half for BiFC (Soybean mosaic virus (SMV-L)); test: split reporter; BiFC in N. benthamiana leaf cells; YN and YC fused to the C termini, exchanged for each pair
[5] = target: SMV CP fused to a split YFP half for BiFC (Soybean mosaic virus (SMV-L)); test: as above
[6] = target: SMV VPg fused to a split YFP half for BiFC (Soybean mosaic virus (SMV-L)); test: as above
[7] = target: TuMV 6K2-YC (Turnip mosaic virus); test: split reporter; BiFC in N. benthamiana leaf cells, confocal microscopy; AtDRP2B-YN with viral proteins fused to YC
[8] = target: TuMV CI-YC (Turnip mosaic virus); test: as above
[9] = target: TuMV CP-YC (Turnip mosaic virus); test: as above
[10] = target: TuMV VPg-YC (Turnip mosaic virus); test: as above

| Molecule | binding [1] | binding [2] | binding [3] | binding [4] | binding [5] | binding [6] | binding [7] | binding [8] | binding [9] | binding [10] |
| --- | --- | --- | --- | --- | --- | --- | --- | --- | --- | --- |
| Turnip mosaic virus capsid protein from infected Arabidopsis | binds | binds weakly | binds | – | – | – | – | – | – | – |
| B1 | – | – | – | binds | binds | binds | – | – | – | – |
| B2 | – | – | – | – | – | – | binds | binds | binds | binds |
| B3 | – | – | – | – | – | – | binds | binds | binds | binds |

From publication PMC6232491
